About 210 (0.4%) of roughly 52,000 sequences were called active.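 How the source made its calls: active means gene whose silencing raises cell survival under the drug, median off-target-corrected z-score across its silencing RNAs 2 or more; inactive means the rest.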 Some of the results follow.

The experiment is described as follows: Resistance to Poly (ADP-Ribose) Polymerase inhibitor: Gene Identification via Genome-wide siRNA Screen. Particulars: mouse BRCA2 R2336H ES cells, olaparib, CellTiter-Glo viability; hits give high values. In outline: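 Mouse BRCA2 R2336H ES cells were reverse-transfected with siRNA (20 nM final), treated at 48 h with 500 nM olaparib, and read by CellTiter-Glo after 72 h. Scores: MAD-based z per siRNA, median per gene, seed off-target correction.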
As to “CCAAGUGCUAAACAAGACATT against 4930458L03Rik”, the z-score is inactive: -0.00649.

For the sequence GUAGUAAUAUCAUGGGCCUTT against Olfr339, the z-score is inactive: -0.595.

Consider GAUUAGCAUCCAUGAACACTT against Tcl1b2, for which the z-score is inactive: 0.639.

For the sequence GGAAGAGGCUGAGAAGCUATT against Pabpn1, the z-score is inactive: -1.37.

As to GGAGUUCCAGCAGCUCUAUTT against Vsnl1, the z-score was inactive: -0.608.

For GUGCCACGACGGUUUUUUCTT against Avp, the z-score is inactive: 0.415.

For “GCCUUUUAUAUAGAAGACCTT against C920005C14Rik”, the z-score is inactive: 0.63.

In the case of GGAGGAAAAAAGGAUCCUGTT against Map3k2, the z-score is inactive: -0.439.

Turning to “CCUACGACAACUCAGACCUTT against 1110006O17Rik”, the z-score was inactive: 0.557.

Regarding GCAUGGUAUUAGAUGAUGATT against Nexn, the z-score was inactive: -1.8.

GAGUGUGCAUUUUGUUAGUTT against Olfr136: the z-score is inactive: 0.517.

Regarding GCCUUUGUGAGGAUUAAACTT against MGC27770, the z-score was inactive: -0.295.

For the sequence GCAGGUGACGUGAGGUUAATT against Zfp276, the z-score is inactive: -2.76.

For “CCUCUCUGAAUUGGUUAAUTT against 2900024C23Rik”, the z-score is inactive: -1.91.

“GGAUUUUUCUAGCAAGUUGTT against 1200009B18Rik”: the z-score was inactive: 0.639.

For the sequence “GGCAAAUGGAUCUUUAUAATT against 5630401D24Rik”, the z-score is inactive: -0.155.

For the sequence GGCCCAAGAGAUUGAUCAATT against Ivd, the z-score was inactive: -0.831.

With GGAGGAGAGCAUUCCCAUUTT against Ddx6, the z-score is inactive: -0.363.

In the case of GUUACCUCUGUGUUGUACUTT against Olfr60, the z-score is inactive: -0.495.

On to CCUGUUAUGACCGUUCAUGTT against Prpf4, for which the z-score was inactive: 0.582.

Take GCAAGUAAGACGGAACCCUTT against Ddx28: the z-score was inactive: 0.796.

For the sequence GGUUUUUGGGAAUUGGCUUTT against Sfxn5, the z-score is inactive: 0.418.

In the case of GGAUCCUCAGAUGAGUAUGTT against Ror1, the z-score is inactive: -1.68.

On to GGACAAAGAAGGCAAGCAUTT against Mecp2, for which the z-score is inactive: 0.573.

Consider GGUACACCUUGUUGGAAUUTT against Eif5a2, for which the z-score is inactive: -1.17.

GGAGAAGGAUUAUACCAGUTT against AI256775: the z-score is inactive: -0.139.

As for GGUAUUUCUUUGUGGUGCUTT against Ptch2, the z-score is inactive: 0.908.

Consider “GCCAAGUCAACCAUAGAAUTT against A930037J23Rik”, for which the z-score was inactive: -1.14.

On to CCAGCUGGCAAGGUUAUGATT against Akap8, for which the z-score is inactive: 0.81.

For the sequence GGAGUCAGUCCAGAUUCUGTT against Tgif, the z-score was inactive: -1.34.

Take GGAGAAAUCAAGCAAAGAUTT against Soat1: the z-score is inactive: 0.362.

Turning to GCCACUAGUAUUAUGCUUCTT against Fhit, the z-score was inactive: 0.926.

On to GGCUACACCUUACUAGUGGTT against LOC73072, for which the z-score is inactive: -0.822.

As for GGAGAGAAAAACUUCUGGUTT against Nfx1, the z-score is inactive: -0.187.

Regarding GGCUACAUGAGCUGGAGAATT against Insr, the z-score is inactive: -0.509.

For GCUCUUUCUAUAAAAGGCCTT against Map3k9, the z-score is inactive: 1.27.

Take GGCGGAAGCCAUGAAGAAATT against Kcnmb4: the z-score is inactive: -1.95.

On to “CCUAAACCCUCAGUUCUCUTT against 4933406A14Rik”, for which the z-score is inactive: -0.066.

As to GGAUGGUUACAUCAACUGCTT against Cabp1, the z-score was inactive: 0.303.

As for GGCUGCACAAAGAUGUUCATT against Yy1, the z-score was inactive: -0.236.

Turning to GCACGCAGAAUUCUUCCGUTT against Gyltl1b, the z-score was inactive: -0.445.

“GCGAACAUUUUUCAGGGUATT against 4921525L17Rik”: the z-score was inactive: -0.784.

With GCUCACCGGGAUCAUUCAATT against Prnpip1, the z-score was inactive: 0.899.

For “CCUACUCCACGGGUAUUUUTT against 1700065D16Rik”, the z-score was inactive: 0.154.

Turning to GGCUGACUGGACAAUAAAGTT against Krt2-18, the z-score is inactive: -0.0858.

Turning to GGUAAAAUACUACCUGAGATT against Abca15, the z-score was inactive: -0.386.

Regarding GGAGUUCACAUUCUUUCUGTT against Cbx7, the z-score was inactive: -0.345.

For GGGUCCUGGUUUUACAUUCTT against Itpr1, the z-score was inactive: 0.536.

On to GGAAACAUGUCCUCACACATT against Top3b, for which the z-score is inactive: 0.337.

Consider GGGCAAUGUGUUUAUGUAUTT against D9Wsu20e, for which the z-score is inactive: 0.0496.

Consider CCCUACUUUGUACAUAGAUTT against Gbx2, for which the z-score is inactive: 1.64.

With GGAAAACAAUUUCAGGCAATT against Zdhhc3, the z-score is inactive: -0.106.

Consider GCUCGUUCUUCGACAUCUUTT against Stard3, for which the z-score is inactive: 1.65.

Regarding GGAGUUUGACCACUACGUATT against P2ry4, the z-score was inactive: 2.38.

For CCUUGUCGCACAAAGAAUATT against Tm9sf1, the z-score is inactive: 0.895.

In the case of GCUGUUGAAACGACACUCGTT against Aarsl, the z-score is inactive: 0.192.

Take GGAUUAAAGCAGAAUAUGATT against Paics: the z-score was inactive: -0.246.

Regarding CCUCCGGAGUAUAAACAAUTT against Nr1i3, the z-score is inactive: 0.749.

Turning to GGUGGAGAGAAAGAGAAAATT against Mcm8, the z-score was inactive: -0.888.

In the case of “GGGAGCAUCACCUCUAUCUTT against 4921526K24Rik”, the z-score is inactive: -0.998.

GGACUUCUUCACCAUCUGGTT against Lcat: the z-score is inactive: -0.145.

As to “GGUGAAUAAAGACCGAGGUTT against 2210417J20Rik”, the z-score was inactive: -0.992.

As to GUCCAUCAGCAGCUCAAUGTT against Ifna5, the z-score was inactive: -0.126.

Consider CCAUAGUGGAAUCAAGGCUTT against Olfr1079, for which the z-score was inactive: 0.494.

For GGAAUGUGAAGAGGGCUUUTT against Olfr1341, the z-score is inactive: -0.671.

As to CCAUGAGCGGAUAAGACUCTT against Zfyve1, the z-score was inactive: 0.461.

Regarding GGAGAUUCGGACAAAGUGATT against Rhcg, the z-score is inactive: 0.442.

With GGAAUUCAGGAGUCUCUUUTT against Elavl4, the z-score was inactive: 0.953.

For GCCAGGAAUGCUAUUCUCGTT against Lrg1, the z-score is inactive: -0.223.

On to CGGAUAGUGAAAUCGCUCUTT against Copz1, for which the z-score is inactive: 0.97.

As to GCCAAACAUUGGUGGACAUTT against H2-D1, the z-score was inactive: 1.59.

As to “GCCUGGUUAUUAAUUUAUCTT against 2810039F03Rik”, the z-score was inactive: 0.689.

Consider GGAGAGUUGAUGUUUGAUGTT against Paxip1, for which the z-score was inactive: -0.886.

For GGGAAGCCUUUUUUAUCGGTT against V1rb5, the z-score was inactive: -1.58.

On to UUCUGUCCAUCGUGAUCAATT against Sctr, for which the z-score was inactive: -1.49.

With GCGACAACGAUUUUGAAAUTT against Rsu1, the z-score is inactive: 0.756.

On to “CCUCUGUCAGUUGGUUAACTT against 2610528O22Rik”, for which the z-score is inactive: -0.279.

Regarding GGAUUUGGAGUAGAUCAAUTT against Tial1, the z-score was inactive: -2.61.

For the sequence “GCCAGUGCUGGUUUGAAAUTT against 1700024K14Rik”, the z-score was inactive: 0.563.

GCUUCAUCCUAGCGGUUUGTT against Dad1: the z-score was inactive: -1.3.

CCAUUCCCAAUUGGUGUGATT against Olfr435: the z-score was inactive: -0.564.

With GGGUAAUAGACCAUUUCUUTT against Olfr124, the z-score is inactive: -0.115.

As for GGAGCUGGAGUACGACUACTT against Tmem30b, the z-score was inactive: -0.403.

With “GGGCAUUCAGCAGUUACAGTT against 4930558O21Rik”, the z-score is inactive: -0.165.

Consider GGAAGGCAUAUGUUUGUGUTT against Asf1a, for which the z-score is inactive: 0.293.

Consider CUUUUGGUAUUGCAGAAUGTT against Olfr972, for which the z-score was inactive: -0.931.

Turning to GGAAGAACAAAAAUGCAAGTT against Icsbp1, the z-score was inactive: 0.532.

Regarding “GGACUAAUUGGCCUCUGCUTT against 3110001N18Rik”, the z-score was inactive: -0.196.

As to GCCAUUAACUAUGGGACCUTT against Lck, the z-score was inactive: -0.11.

Regarding GGAGUAGUGUUGGAUAUAUTT against Mpv17l, the z-score was inactive: 0.041.

Turning to “CGAUCAACUAUGCCAUUGGTT against 2310051D06Rik”, the z-score is inactive: -0.838.

Take CCGCUCCGAACCAAGAAGATT against Tulp1: the z-score was inactive: 0.372.

On to GGAGAGUAUCAGCAAUGAATT against Impg2, for which the z-score was inactive: -2.13.

Consider “GGCCAACAGGACAGAGAUGTT against D830013H12”, for which the z-score was inactive: 0.338.

In the case of GGAAUCCUUACAUCGCCCATT against Olfr669, the z-score was inactive: 0.25.

Consider GGCAGACAACUUCUACCAATT against Crim1, for which the z-score is inactive: 0.715.

In the case of “GGCUGACCCUAGAAAGACATT against D430025H09Rik”, the z-score was inactive: -2.44.

With “GGAUGGAGCUACUGAAAUUTT against 2500002K03Rik”, the z-score was inactive: -2.6.

For GGCUACCAAGGCAGUUUCCTT against Glis1, the z-score is inactive: 1.37.

With GGCGAAAGUAAGACAAAGUTT against AI114950, the z-score is inactive: -1.59.

As for GCUGGUCAGAGAUUUUGAUTT against Vti1b, the z-score was inactive: 0.162.

Regarding GCUGAUUCCGUGUCCCAACTT against Gng2, the z-score is inactive: -0.0449.

As to GGCAUCGAUUACAUAAGUUTT against Oxr1, the z-score is inactive: -0.618.

On to GGUUGGGCAUUGCACUAACTT against AI849156, for which the z-score was inactive: 1.12.

Source of the values: PubChem BioAssay AID1347423 (Functional Genomics Laboratory (NCATS/FGL), 2020).
